Measured values as given in paper PMC6538628.
No constants are given. Whether binding was seen depends on the method and setting. Binding seen in cells or lysates may run through a third protein. Some results given as binding are weak or reduced against the parent protein; the word gives no strength.

Sequences of proteins named here, by UniProt entry; tags and fusion partners are left off. Residues count along the entry.
UniProt O55005, residues 26-1651: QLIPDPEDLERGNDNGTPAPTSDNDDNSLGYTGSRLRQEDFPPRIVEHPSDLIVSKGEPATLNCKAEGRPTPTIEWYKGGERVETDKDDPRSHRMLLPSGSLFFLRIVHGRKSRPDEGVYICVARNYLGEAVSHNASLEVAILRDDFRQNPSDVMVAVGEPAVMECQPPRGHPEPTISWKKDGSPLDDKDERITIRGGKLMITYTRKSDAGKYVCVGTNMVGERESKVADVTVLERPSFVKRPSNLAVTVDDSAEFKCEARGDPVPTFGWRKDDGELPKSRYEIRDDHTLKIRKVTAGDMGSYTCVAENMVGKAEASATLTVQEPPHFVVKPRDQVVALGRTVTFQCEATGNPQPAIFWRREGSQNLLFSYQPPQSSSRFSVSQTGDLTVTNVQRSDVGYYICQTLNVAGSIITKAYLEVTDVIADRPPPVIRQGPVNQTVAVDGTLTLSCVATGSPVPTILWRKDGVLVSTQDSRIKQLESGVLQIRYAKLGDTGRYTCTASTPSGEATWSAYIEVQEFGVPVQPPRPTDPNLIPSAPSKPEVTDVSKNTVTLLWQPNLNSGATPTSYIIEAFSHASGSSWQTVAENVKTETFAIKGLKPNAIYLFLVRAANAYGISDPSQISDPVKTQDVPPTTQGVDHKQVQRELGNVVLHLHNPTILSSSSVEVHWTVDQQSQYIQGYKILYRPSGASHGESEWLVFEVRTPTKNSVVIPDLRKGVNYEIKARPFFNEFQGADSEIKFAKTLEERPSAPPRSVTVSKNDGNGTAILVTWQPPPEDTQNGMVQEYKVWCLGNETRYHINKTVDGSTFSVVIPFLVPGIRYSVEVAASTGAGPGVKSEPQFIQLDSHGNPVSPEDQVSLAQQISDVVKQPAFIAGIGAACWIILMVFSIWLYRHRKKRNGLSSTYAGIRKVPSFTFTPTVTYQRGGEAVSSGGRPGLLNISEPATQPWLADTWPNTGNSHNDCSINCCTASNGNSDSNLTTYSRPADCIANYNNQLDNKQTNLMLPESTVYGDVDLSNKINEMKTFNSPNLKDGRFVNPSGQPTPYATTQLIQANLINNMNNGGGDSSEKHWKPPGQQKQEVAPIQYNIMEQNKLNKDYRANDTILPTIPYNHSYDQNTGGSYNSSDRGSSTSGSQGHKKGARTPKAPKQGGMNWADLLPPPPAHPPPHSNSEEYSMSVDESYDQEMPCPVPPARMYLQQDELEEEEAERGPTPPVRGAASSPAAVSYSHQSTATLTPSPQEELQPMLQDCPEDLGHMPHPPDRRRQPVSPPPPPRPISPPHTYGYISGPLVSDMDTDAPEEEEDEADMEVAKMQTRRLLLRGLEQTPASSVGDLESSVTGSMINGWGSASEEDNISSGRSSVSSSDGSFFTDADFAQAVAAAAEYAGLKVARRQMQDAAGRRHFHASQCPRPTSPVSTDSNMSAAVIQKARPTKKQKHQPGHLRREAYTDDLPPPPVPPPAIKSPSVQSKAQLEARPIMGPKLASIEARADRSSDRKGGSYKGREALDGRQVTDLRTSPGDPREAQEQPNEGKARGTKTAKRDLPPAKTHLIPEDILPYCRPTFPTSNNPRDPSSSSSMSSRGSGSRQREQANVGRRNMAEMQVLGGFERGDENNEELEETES
UniProt Q99961: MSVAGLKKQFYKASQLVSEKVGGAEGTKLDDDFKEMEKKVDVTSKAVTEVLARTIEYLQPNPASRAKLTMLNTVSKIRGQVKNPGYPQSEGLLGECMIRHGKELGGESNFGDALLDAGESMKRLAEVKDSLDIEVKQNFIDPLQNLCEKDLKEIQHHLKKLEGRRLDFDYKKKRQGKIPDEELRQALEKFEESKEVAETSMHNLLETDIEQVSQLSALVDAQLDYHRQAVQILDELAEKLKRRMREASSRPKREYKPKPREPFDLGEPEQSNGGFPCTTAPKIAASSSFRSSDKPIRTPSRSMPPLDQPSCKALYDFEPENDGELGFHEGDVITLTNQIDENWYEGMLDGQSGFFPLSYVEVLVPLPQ
UniProt P35968, residues 20-1356: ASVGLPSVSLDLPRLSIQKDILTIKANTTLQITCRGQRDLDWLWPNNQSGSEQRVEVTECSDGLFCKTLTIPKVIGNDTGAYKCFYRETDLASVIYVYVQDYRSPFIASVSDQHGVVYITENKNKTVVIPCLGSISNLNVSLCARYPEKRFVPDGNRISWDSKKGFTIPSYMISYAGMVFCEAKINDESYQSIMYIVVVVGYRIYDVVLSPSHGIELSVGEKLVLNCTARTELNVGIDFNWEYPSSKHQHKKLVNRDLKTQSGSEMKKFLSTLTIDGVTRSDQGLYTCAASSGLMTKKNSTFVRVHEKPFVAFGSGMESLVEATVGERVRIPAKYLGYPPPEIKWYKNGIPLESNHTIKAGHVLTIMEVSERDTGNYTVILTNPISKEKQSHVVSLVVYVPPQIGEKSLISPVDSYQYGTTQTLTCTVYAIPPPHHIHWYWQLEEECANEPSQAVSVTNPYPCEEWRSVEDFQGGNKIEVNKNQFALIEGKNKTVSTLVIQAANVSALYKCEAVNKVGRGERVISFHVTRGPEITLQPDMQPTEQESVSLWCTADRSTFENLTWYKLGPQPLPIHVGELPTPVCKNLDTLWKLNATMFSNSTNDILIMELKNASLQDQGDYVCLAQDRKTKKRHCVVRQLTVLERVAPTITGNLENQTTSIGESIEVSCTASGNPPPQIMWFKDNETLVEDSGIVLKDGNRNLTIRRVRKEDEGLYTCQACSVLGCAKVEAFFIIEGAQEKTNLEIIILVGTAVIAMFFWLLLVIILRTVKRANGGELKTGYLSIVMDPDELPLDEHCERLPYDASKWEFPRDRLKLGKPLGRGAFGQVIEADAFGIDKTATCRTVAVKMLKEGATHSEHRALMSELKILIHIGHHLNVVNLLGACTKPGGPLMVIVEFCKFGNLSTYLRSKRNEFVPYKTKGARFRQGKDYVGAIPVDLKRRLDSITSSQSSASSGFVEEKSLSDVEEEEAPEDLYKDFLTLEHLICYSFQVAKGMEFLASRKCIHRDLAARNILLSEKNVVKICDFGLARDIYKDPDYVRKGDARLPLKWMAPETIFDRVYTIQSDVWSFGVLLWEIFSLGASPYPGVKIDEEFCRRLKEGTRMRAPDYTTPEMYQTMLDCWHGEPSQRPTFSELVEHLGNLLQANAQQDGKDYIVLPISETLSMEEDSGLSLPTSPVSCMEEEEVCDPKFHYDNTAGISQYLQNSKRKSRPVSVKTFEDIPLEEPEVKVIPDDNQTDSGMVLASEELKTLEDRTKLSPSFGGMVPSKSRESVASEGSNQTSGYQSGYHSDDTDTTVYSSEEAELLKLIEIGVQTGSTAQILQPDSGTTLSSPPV
UniProt Q7Z6B7: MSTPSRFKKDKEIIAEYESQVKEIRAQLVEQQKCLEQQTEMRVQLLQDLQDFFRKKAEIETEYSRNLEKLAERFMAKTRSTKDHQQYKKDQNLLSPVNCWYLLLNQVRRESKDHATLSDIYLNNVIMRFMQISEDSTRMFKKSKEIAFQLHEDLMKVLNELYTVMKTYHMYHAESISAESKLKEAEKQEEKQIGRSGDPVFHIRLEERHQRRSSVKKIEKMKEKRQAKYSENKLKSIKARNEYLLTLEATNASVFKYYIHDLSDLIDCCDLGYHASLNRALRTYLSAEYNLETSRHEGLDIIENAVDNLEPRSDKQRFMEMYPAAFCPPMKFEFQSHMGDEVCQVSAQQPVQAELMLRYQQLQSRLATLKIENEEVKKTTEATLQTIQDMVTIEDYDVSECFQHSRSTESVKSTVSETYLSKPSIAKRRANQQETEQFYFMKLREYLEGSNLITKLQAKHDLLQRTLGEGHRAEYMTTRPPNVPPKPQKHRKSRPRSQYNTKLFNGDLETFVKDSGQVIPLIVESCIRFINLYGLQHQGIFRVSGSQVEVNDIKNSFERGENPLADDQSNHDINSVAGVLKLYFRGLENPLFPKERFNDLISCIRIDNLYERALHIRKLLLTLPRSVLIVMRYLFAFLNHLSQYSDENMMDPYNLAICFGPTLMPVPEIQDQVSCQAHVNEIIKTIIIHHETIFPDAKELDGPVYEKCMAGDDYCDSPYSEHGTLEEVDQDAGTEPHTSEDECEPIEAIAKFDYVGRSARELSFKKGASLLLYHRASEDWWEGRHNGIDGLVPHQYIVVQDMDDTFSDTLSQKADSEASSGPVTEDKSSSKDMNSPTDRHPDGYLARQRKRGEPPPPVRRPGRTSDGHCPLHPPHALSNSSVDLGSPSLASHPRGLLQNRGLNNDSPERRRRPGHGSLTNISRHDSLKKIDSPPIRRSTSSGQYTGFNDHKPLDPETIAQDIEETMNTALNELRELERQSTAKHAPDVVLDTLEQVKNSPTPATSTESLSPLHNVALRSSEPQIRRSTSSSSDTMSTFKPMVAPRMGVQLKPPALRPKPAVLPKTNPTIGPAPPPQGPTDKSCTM
UniProt Q9Y6N7, residues 26-1651: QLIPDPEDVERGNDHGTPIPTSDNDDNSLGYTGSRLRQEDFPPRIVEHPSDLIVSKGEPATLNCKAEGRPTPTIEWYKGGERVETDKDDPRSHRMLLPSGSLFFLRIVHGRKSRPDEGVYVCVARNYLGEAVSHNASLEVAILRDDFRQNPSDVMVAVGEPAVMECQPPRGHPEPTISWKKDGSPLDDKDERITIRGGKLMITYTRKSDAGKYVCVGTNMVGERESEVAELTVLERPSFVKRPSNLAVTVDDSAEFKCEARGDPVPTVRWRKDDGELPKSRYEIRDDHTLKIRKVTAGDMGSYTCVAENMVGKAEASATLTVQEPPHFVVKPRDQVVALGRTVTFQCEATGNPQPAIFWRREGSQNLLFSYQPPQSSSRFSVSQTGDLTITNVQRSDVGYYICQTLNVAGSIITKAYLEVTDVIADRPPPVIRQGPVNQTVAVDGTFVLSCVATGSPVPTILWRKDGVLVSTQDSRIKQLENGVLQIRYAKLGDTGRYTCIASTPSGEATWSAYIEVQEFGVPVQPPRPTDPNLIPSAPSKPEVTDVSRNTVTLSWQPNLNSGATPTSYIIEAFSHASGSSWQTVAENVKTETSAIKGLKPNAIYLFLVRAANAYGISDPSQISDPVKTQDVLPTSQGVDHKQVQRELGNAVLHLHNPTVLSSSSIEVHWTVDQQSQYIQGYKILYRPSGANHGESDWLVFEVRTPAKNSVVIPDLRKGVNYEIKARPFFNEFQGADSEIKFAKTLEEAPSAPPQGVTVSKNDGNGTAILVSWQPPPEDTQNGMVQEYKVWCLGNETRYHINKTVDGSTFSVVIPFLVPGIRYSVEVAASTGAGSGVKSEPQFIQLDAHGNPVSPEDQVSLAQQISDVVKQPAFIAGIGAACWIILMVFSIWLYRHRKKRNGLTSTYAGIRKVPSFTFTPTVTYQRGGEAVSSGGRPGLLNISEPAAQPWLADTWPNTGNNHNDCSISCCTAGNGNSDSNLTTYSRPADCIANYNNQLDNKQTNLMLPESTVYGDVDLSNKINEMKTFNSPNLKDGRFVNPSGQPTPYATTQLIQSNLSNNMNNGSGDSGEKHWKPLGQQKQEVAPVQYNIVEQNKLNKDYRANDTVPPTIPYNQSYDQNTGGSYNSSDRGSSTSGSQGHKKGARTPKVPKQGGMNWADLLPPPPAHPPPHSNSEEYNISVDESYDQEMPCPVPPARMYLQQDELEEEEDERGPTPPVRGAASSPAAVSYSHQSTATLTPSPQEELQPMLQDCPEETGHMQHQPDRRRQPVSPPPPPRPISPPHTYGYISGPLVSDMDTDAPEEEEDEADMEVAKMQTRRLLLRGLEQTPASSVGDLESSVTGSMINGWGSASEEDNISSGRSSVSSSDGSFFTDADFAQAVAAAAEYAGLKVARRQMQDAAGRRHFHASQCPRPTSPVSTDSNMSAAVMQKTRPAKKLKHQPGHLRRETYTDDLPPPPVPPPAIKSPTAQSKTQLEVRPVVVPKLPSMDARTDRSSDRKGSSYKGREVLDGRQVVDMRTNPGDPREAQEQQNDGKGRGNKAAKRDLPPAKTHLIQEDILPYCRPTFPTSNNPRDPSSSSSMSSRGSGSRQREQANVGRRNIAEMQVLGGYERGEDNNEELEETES

What was measured:
[1] = molecular target: siRNA resistant rat full-length ROBO1-GFP (rat) (UniProt O55005); test: co-IP; GFP immunoprecipitation (anti-GFP, protein A/G magnetic beads) from ROBO1/2 siRNA silenced HUVECs transduced with adenoviral ROBO1WT-GFP or ROBO1ΔCC3-GFP; lysis in 50 mM Tris-HCl pH 7.4, 50 mM NaCl, 0.5% Triton X-100; western blot; beads alone as control
[2] = molecular target: Endophilin-A2 (human (endogenous in HUVEC)) (UniProt Q99961); test: co-IP; ENDOA2 immunoprecipitation (anti-ENDOA2, protein A/G magnetic beads) from HUVECs cultured in full, serum-containing medium; lysis in 50 mM Tris-HCl pH 7.4, 50 mM NaCl, 0.5% Triton X-100; overnight at 4 °C; western blot; beads alone as control
[3] = molecular target: VEGF receptor 2 (human (endogenous in HUVEC)) (UniProt P35968); test: co-IP; VEGFR2 immunoprecipitation from HUVEC after VEGF (1.5 nM for 2'30'') or SLIT2 (3 nM for 2'30'') stimulation; western blot for ROBO1 and VEGFR2

Substance	binding [1]	binding [2]	binding [3]
SLIT ROBO GTPase-activating protein 1 (from UniProt Q7Z6B7 1-1085)	binds		
VEGF receptor 2 (from UniProt P35968 20-1356)	binds	binds	
ROBO1 (from UniProt Q9Y6N7 26-1651) (receptor)			binds
